{"source": "patent US7964598B2", "about": "(The J. David Gladstone Institutes, priority 1995, dated 2011)", "key": {"[1]": {"molecular_target": "T1, apoE4 (Homo sapiens, UniProt P02649, C130R)", "T1 construct": "made in house", "assay": "Emulsion binding assay for domain interaction, apoE4", "settings": "potassium salt", "procedure": "(§1) Preparation of emulsion particles. Triolein (160 mg) and L-alpha-Phosphatidylcholine (40 mg) are combined and dried under nitrogen. After the addition of 8 mls of buffer (10 mM Tris, 100 mM KCl, 1 mM EDTA, pH 8.0), the mixture is sonicated in a water bath to obtain a heterogeneous mix of emulsion particles. The particles are harvested by ultracentrifugation (TLA 100.2 rotor, 30,000 rpm for 30 minutes) and the subsequent lipid cake is removed by tube slicing and resuspended in 100 μt 20 mM Phosphate Buffer (PB). Triolein and phospholipid content are measured and total emulsion particle concentration is determined.\n(§2) Radiolabelling Freshly denatured and renatured Apolipoprotein E3 and E4 are radiolabelled using Bolton-Hunter Reagent [^125I] (ICN). Specific Activity is determined using Lowry method and Gamma 8000 counter.\n(§3) Binding Affinity Assay. […] In glass tubes, 25 μg of protein (with iodinated tracer) was reduced with 1% β-mercaptoethanol. Two hundred and fifty μg of emulsion particles and 2.5 μl of compound (10 mM stock) were added and the final mixture was brought up to 250 μl with 20 mM phosphate buffer (PB). The reaction mixture was then incubated in a 37° C. water bath for 2 hours before being transferred to 1.5 ml ultracentrifuge tubes. […] These fractions were then combined with the respective half of the actual tube and counted using a Gamma-8000. […]"}, "[2]": {"molecular_target": "T2, apoE3 (Homo sapiens, UniProt P02649)", "T2 construct": "made in house", "assay": "Emulsion binding assay, apoE3", "procedure": "as §1, §2, §3"}, "[3]": {"system": "apoE4 enhancement of Aβ production", "assay": "Aβ production assay, B103-APP cells incubated with apoE4", "assay_type": "cell-based, rat", "procedure": "Aβ production assay. Stable neuroblastoma B103 cell lines transfected with a wildtype hAPP cDNA construct (B 103-APP) were selected by growing them in Dulbecco's modified Eagle's medium (DMEM) containing 10% fetal calf serum (FBS) and 400 μg/ml G418. A cell line expressing APP at similar levels in mouse brains has been identified by RNase protection assay (RPA) and was used in the studies described below. To determine Aβ production, B103-APP cells were incubated with serum-free minimal essential medium (MEM) containing N2 supplements with or without apoE isoforms for 24 h at 37° C. After incubation, 50 μl of medium was collected and assayed for Aβ levels with an ELISA method. The cells were lysed, and cellular proteins were determined by the Lowry method. AP production was normalized to cellular protein.\nCell Culture. […]\nAβ Assay. Aβ secreted into the medium was detected with a sandwich enzyme-linked immunosorbent assay (ELISA), using mAb 266 as a capturing antibody and 3D6 as a detecting antibody, as described. […] Aβ was quantified from a standard curve (Aβ42; Bachem, Torrance, Calif.) and normalized by total cellular protein."}, "[4]": {"molecular_target": "T3, YFP-apoE4-CFP (Homo sapiens, UniProt P02649, C130R)", "T3 construct": "vector signal peptide (pFLAG-CMV3) (N); FLAG (N); expressed in transfected cells", "assay": "Cell-based FRET assay, YFP-apoE4-CFP", "settings": "5-20 μM", "description": "(§4) Xu et al. (2004) J. Biol. Chem. 279:25511-25516. FRET—the non-radioactive transfer of photon energy from an excited fluorophore (donor) to another fluorophore (acceptor)—occurs only when the donor and acceptor are in close proximity (<100 Å). Thus, this approach can be used to measure nanometer scale distances.\n(§5) Xu et al. (2004) J. Biol. Chem. 279:25511-25516. The constructs are depicted schematically in FIG. 29.\n(§6) Since the emission spectrum of CFP (460-520 nm) overlaps with the excitation spectrum of YFP (480-520 nm), FLEXstation (Molecular Devices) can be used to measure FRET in living cells expressing YFP-apoE3-CFP or YFP-apoE4-CFP in a high throughput manner. […] Since the FLEXstation can read FRET in both cells and the culture media treated without or with various small molecules, this assay allows one to know whether a small molecule affects apoE4 domain interaction only in the medium (“medium FRET”) or also inside the cell (“intracellular FRET”). […]\n(§7) Quantifying FRET in Transfected Neuro-2a Cells—Stably transfected Neuro-2a cells expressing YFP-apoE3-CFP or YFP-apoE4-CFP at similar levels were selected by fluorescence activated cell sorter (FACS). YFP and CFP images of transfected cells were acquired with the Meta Detector, and their fluorescence intensities were analyzed with the mounted computer. […]"}, "[5]": {"molecular_target": "T4, YFP-apoE3-CFP (Homo sapiens, UniProt P02649)", "T4 construct": "vector signal peptide (pFLAG-CMV3) (N); FLAG (N); expressed in transfected cells", "assay": "Cell-based FRET assay, YFP-apoE3-CFP", "description": "as §4, §5, §6, §7"}, "[6]": {"system": "Neuro-2a cells", "assay": "Aβ-induced lysosomal leakage (cytosolic β-hexosaminidase)", "assay_type": "cell-based, mouse", "settings": "5 μM; apoE4 conditioned medium, Aβ1-42 20 μM; potassium salt", "procedure": "The cytosolic fraction was obtained by ultracentrifugation, and the cytosolic β-hexosaminidase activity was measured.\nQuantitation of the lysosomal enzyme β-hexosaminidase activity in the cytosol indicates lysosomal leakage. […] After incubation the cells were washed and cytosolic fractions were isolated as described in Materials and Methods. The enzymatic activity of β-hexosaminidase was assayed in 20 μg of cytosolic protein for each sample.\nLysosomal leakage was quantitated by assaying cytosolic 0-hexosaminidase activity. […] Conditioned media were prepared as described above. Apoptosis was quantitated by measuring DNA fragmentation."}, "[7]": {"system": "Neuro-2a cells", "assay": "Aβ-induced apoptosis (DNA fragmentation assay)", "assay_type": "cell-based, mouse", "settings": "apoE4 conditioned medium, Aβ1-42; potassium salt", "procedure": "DNA Fragmentation Assay—DNA fragmentation of apoptotic cells was determined with Cell Death Detection ELISA kits (Roche, Indianapolis, Ind.).\nFIG. 38. […] Control cells were not treated with Aβ1-42. Apoptotic cell death was measured with a DNA fragmentation assay. Values are the mean±S.D. of three separate experiments.\nFIGS. 39A and 39B. […] Lysosomal leakage was quantitated by assaying cytosolic 0-hexosaminidase activity. […] Conditioned media were prepared as described above. Apoptosis was quantitated by measuring DNA fragmentation."}}, "note": "Entries after “also recorded” stand apart in the source; their conditions may differ. At least one structure is not confirmed: it was looked up by name or label, or the drawing left a doubt.", "data": [{"smiles": "CCCCN1C(=O)/C(=C/C=C2/Oc3ccccc3N2CCCCS(=O)(=O)[O-])N(CC)C1=S.[K+]", "note": "[GIND-105]", "values": [{"measurement": "apoE4 domain interaction / binding of apoE4 to VLDL-like emulsion particles", "setting": "[1]", "value": "capable of blocking apoE4 domain interaction; also recorded: inhibited significantly"}, {"measurement": "binding of apoE3 to the emulsion particles", "setting": "[2]", "value": "no significant effect"}, {"measurement": "apoE4 enhancement of Aβ production", "setting": "[3]; FIG. 22", "value": "abolished completely"}, {"measurement": "enhancement of Aβ production by apoE4", "setting": "[3]; compound 5 μM preincubated with apoE 7.5 μg/ml 30 min, then 24 h with cells, FIG. 27D, potassium salt", "value": "abolish; also recorded: decreased Aβ production induced by apoE4 to levels similar to those induced by apoE3"}, {"measurement": "ratio of FRET to CFP emission in the cells expressing YFP-apoE4-CFP", "setting": "[4]; intracellular", "value": "decreased significantly"}, {"measurement": "ratio of FRET to CFP emission in media of YFP-apoE4-CFP cells", "setting": "[4]; medium", "value": "decreased significantly"}, {"measurement": "ratio of FRET to CFP emission in cells expressing YFP-apoE3-CFP", "setting": "[5]; intracellular", "value": "none of these compounds altered significantly"}, {"measurement": "ratio of FRET to CFP emission in media of YFP-apoE3-CFP cells", "setting": "[5]; medium", "value": "none of these compounds altered significantly"}, {"measurement": "apoE4 potentiation of Aβ-induced lysosomal leakage", "setting": "[6]", "value": "block; also recorded: abolish"}, {"measurement": "apoE4 potentiation of Aβ-induced apoptosis", "setting": "[7]", "value": "block; also recorded: abolish"}]}]}
